The values below come from patent publication US20020058020A1, “Isolated amphiphilic peptides derived from the cytoplasmic tail of viral envelope proteins” (priority 1999, published 2002).

The data set deals with virions from transfected 293T cells. Kind of data set: Envelope protein incorporation into viral particles (Western Blot). As to conditions: Western Blots n = 3-5, anti-p30, gp70, p15E. On the technique in general: Immunoblotting shows a protein as a band on a membrane.

For “WT: wild type MoMuLV ecotropic envelope protein”, the “Particle Incorporation” value is “++++”.
